The results in this text go back to publication PMC3174154, “Protein-Protein Interactions in Crystals of the Human Receptor-Type Protein Tyrosine Phosphatase ICA512 Ectodomain” (PLoS ONE, 2011).

Changes are numbered by the printed parent chain. Numbers in names are those of the source. These are yes or no findings as the source states them, for the method shown.

The target in the assay is T1, mature ectodomain of ICA512 (ME ICA512), wild type, residues 470 to 558 (human) (UniProt Q16849).
T1 sequence: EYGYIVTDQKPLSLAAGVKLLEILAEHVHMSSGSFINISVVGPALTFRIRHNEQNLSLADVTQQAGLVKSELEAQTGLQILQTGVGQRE
Put plainly: SEC; Superose 12, 20°C, 20 mM sodium phosphate, 150 mM NaCl, pH 7.0; each variant injected at 500 µM in 100 µl, alone or preincubated and injected together; both purified.

B1: S508A ME ICA512 (domain or fragment, UniProt Q16849 470-558)
chain: T1 sequence with S39A
As to B1, the binding entry is “no binding (tested: 500 µM of each injected)”.
